Experimental data published in patent publication US20050026068A1, “Polycarbocyclic derivatives for modification of resist, optical and etch resistance properties” (priority 2001, published 2005).

Assays:
[1] = Oxygen plasma etching rate of PMMA films, Reactive Ion Etcher; conditions: for ETCH RATE (Oxygen plasma etching rate): RIE, 10 mTorr, 400 W, DC bias 150V, 2 min, pure PMMA 3300
[2] = Etching of PMMA films in inductively coupled high density plasma reactor (O2 or SF6); conditions: PMMA loaded with additive; ICP 600 W, bias 100V, 10 mTorr
[3] = PMMA film loaded with additive, O2 plasma RIE, 120 sec

SMILES | ETCH RATE (Oxygen plasma etching rate) ([1]; additive 5% w/w in PMMA) [Å/min] | ETCH RATE (Oxygen plasma etching rate) ([1]; additive 7.5% w/w in PMMA) [Å/min] | further results
Nc1ccc2cc3ccccc3cc2c1 [2-aminoanthracene] | 2435 | – | –
O=C(O)c1c2ccccc2cc2ccccc12 [9-anthracene carboxylic acid] | 3017 | – | –
OCc1c2ccccc2cc2ccccc12 [9-anthracene methanol] | 3017 | – | –
O=C(OCC(COC(=O)C12CC3CC(CC(C3)C1)C2)Cc1c2ccccc2cc2ccccc12)C12CC3CC(CC(C3)C1)C2 (stereo not drawn) [Compound XIII, Mixed anthryl ester] | – | 3100 | –
CC(=O)C1CCC2C3CC=C4CC(OC(=O)c5c6ccccc6cc6ccccc56)CCC4(C)C3CCC12C (stereo not drawn) [Compound XIV, 5-pregnen-3β-yl-(9-anthryl-methylate)-20-one] | – | 2700 | –
O=C(O)CCC(=O)OC(Cc1c2ccccc2cc2ccccc12)Cc1c2ccccc2cc2ccccc12 [II, 1,3-di-(9-anthryl2-propyl hydrogen succinate] | – | 2850 | –
O=C(CCC(=O)OC(Cc1c2ccccc2cc2ccccc12)Cc1c2ccccc2cc2ccccc12)OCc1c2ccccc2cc2ccccc12 [IX, 1,3-Di-(9-anthryl)-2-propyl 9-anthrylmethyl Succinate] | – | 2850 | –
OC(Cc1c2ccccc2cc2ccccc12)Cc1c2ccccc2cc2ccccc12 [I] | – | 2700 | –
O=C(OCCOc1c2ccccc2cc2ccccc12)OCCOc1c2ccccc2cc2ccccc12 [VI, Di-2-(9-anthryloxy)-ethyl carbonate] | – | 3067 | –
O=C(OCc1c2ccccc2cc2ccccc12)c1c2ccccc2cc2ccccc12 [VII] | – | 2800 | –
O=C(CCC(=O)OC(Cc1c2ccccc2cc2ccccc12)Cc1c2ccccc2cc2ccccc12)OCC(COC(=O)CCC(=O)OC(Cc1c2ccccc2cc2ccccc12)Cc1c2ccccc2cc2ccccc12)Cc1c2ccccc2cc2ccccc12 [X, Penta-anthryl ester] | – | 2750 | –
O=C(OCc1c2ccccc2cc2ccccc12)C12CC3CC(CC(C3)C1)C2 [XI, 1-adamantyl 9-anthrylmethylate] | – | 2600 | Etching Rates in O2 Plasma [2]: 3600 Å/min; Etching Rates in SF6 Plasma [2]: 2410 Å/min; Etching rates [1, 3]: 2.600 Å/min; Thickness after etching [1, 3]: 4.600 Å; Thickness differences [1, 3]: 5.200 Å
c1ccc2cc3ccccc3cc2c1 [anthracene] | 3017 | – | –
